# Experimental data published in article PMC6179040.
# By UniProt entry, the sequences of proteins in these tests, tags left out.
# UniProt P06537: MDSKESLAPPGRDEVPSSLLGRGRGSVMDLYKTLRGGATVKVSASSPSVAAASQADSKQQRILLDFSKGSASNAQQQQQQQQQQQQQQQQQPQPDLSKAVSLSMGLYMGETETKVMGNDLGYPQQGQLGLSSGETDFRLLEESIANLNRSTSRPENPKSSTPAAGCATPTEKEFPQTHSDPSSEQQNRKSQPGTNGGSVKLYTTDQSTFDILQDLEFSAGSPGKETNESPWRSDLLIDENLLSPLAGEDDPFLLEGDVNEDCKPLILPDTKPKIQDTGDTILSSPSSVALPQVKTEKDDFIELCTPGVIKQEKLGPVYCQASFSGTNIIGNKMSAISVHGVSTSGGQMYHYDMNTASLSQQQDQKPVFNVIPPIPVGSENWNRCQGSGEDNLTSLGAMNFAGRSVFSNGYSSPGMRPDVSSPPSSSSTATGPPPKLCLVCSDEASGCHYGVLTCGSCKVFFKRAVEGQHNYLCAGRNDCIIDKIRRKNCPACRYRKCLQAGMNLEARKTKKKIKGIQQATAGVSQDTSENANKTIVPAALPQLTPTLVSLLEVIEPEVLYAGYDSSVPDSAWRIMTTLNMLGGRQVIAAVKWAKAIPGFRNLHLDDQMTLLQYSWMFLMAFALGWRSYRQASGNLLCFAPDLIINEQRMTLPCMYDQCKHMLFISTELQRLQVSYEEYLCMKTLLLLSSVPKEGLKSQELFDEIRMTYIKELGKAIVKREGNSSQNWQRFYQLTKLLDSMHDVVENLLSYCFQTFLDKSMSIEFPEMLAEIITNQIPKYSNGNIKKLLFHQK
# UniProt P04150: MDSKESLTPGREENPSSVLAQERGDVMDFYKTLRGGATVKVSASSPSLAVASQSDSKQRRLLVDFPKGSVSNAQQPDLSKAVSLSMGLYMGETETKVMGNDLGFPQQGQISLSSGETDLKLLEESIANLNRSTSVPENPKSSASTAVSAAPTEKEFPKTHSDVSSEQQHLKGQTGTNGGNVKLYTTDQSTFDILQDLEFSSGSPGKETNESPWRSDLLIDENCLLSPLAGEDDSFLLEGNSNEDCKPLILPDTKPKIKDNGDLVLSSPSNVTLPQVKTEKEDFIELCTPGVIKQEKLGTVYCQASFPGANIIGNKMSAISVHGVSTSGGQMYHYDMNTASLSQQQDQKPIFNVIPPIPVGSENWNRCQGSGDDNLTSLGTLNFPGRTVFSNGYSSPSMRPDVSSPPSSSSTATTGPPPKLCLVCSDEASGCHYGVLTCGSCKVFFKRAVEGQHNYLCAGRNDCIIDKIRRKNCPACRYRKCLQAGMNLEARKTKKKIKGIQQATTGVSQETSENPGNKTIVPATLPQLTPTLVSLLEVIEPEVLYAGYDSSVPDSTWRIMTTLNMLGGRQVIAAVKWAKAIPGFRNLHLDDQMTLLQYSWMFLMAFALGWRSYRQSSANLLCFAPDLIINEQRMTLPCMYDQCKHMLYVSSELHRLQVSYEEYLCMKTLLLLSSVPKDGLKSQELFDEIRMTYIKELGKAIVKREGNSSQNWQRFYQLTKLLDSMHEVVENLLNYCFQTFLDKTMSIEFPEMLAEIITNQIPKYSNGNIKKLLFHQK
# Results are given in words; binding and its absence hold for the method and conditions named. Binding seen in cells or lysates may run through a third protein. Some binding calls cover weakened binding; strength is not graded here.
# B1: LUMAN/CREB3 (endogenous, m-hippo-E18 cells) (protein, UniProt Q61817 1-404)
# chain: MDPGGQDLLALDPGDQDLLGFLLEESGDLWAATEPDVKASLDLELSPSENSVQELSDWEVEDLLSSLLSPSVSRDVLGSSSSSILHDHNYSLPQEHVSIDLGECEMISCRGRRELTGLAGSTFPFADTESFEKEGFHVTPLPGEERAAEQEMSRLILTEEEKKLLEKEGLTLPSTLPLTKVEEQVLKRVRRKIRNKRAAQESRKKKKVYVVGLESRVLKYTAQNRELQNKVQRLEEQNLSLLDQLRKLQAMVIEIANKTSSGSTCVLVLVFSFCLLLVPAMYSSDARGSVPAEYVVLHRKLRALPSEDDHQPKPSALSSELPMDSTHQSLDSSEHMFLVSSNFSCVLYHAPQAEQPLHWPLWDLSSEMLFSDSNLLLQANLSESEGWQPNHSPSLVIFQGRYSG
# B2: full-length LUMAN (transfected, HEK293) (protein, UniProt O43889 1-371)
# chain: MELELDAGDQDLLAFLLEESGDLGTAPDEAVRAPLDWALPLSEVPSDWEVDDLLCSLLSPPASLNILSSSNPCLVHHDHTYSLPRETVSMDLESESCRKEGTQMTPQHMEELAEQEIARLVLTDEEKSLLEKEGLILPETLPLTKTEEQILKRVRRKIRNKRSAQESRRKKKVYVGGLESRVLKYTAQNMELQNKVQLLEEQNLSLLDQLRKLQAMVIEISNKTSSSSTCILVLLVSFCLLLVPAMYSSDTRGSLPAEHGVLSRQLRALPSEDPYQLELPALQSEVPKDSTHQWLDGSDCVLQAPGNTSCLLHYMPQAPSAEPPLEWPFPDLFSEPLCRGPILPLQANLTRKGGWLPTGSPSVILQDRYSG
# What was measured:
# [1] = biological target: glucocorticoid receptor (endogenous, m-hippo-E18 cells) (mouse (endogenous in m-hippo-E18)) (UniProt P06537); assay: co-IP; endogenous proteins in mHippo-E18 cells; CREB3 antibody (Proteintech) and GR antibody (G-5) used to pull down their respective proteins, IgG as negative control
# [2] = biological target: glucocorticoid receptor (transfected, HEK293) (UniProt P04150); assay: co-IP; HEK293 cells transfected with LUMAN constructs and GR; cells crosslinked with 1% paraformaldehyde for 10 min, lysed in RIPA buffer; CREB3 or GR (G-5) antibody, Protein A/G beads, IgG as negative control; Western blot
binding [1],binding [2],Binder
binds,–,B1
–,binds,B2
